Laboratory results: PMC5520720
Results are given in words; binding and its absence hold for the method and conditions named. In cells and extracts the contact can be indirect. Some binding calls cover weakened binding; strength is not graded here. Sequences can lack the tags named with a protein.

By UniProt entry, the sequences of proteins in these tests, tags left out.
UniProt P25490: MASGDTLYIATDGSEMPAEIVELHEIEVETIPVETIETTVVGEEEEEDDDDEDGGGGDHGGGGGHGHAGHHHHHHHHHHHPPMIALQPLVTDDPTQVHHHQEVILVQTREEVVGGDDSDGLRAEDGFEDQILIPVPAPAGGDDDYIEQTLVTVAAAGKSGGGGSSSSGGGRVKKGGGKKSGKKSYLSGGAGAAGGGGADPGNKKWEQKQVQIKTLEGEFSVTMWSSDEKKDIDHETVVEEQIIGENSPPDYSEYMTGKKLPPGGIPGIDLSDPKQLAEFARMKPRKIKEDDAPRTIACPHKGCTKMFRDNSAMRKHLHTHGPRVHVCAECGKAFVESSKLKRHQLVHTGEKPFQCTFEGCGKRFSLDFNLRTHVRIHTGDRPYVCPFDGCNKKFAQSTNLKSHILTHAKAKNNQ

Target: T1, N-myc and STAT interactor (NMI) (human (endogenous in human breast cancer cells)) (UniProt Q13287)
T1 sequence: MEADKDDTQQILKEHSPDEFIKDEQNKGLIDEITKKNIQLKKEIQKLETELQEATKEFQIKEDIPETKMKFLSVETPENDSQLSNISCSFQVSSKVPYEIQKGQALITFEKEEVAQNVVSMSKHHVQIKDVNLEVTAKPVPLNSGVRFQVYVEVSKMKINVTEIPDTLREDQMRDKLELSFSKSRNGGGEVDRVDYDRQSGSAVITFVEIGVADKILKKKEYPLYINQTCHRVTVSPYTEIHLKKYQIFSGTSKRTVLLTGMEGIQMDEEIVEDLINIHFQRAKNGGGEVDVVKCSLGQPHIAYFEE
Experiment: co-IP; nuclear extracts of human breast cancer cells; antibody against NMI or YY1 (mouse IgG as control) overnight at 4 °C, protein A/G plus-agarose beads 2 h, washed with PBS, western blot

binding: binds
Substance: YY1 (from UniProt P25490 1-414)
